# Source: US11596613B2, “Compositions and methods for treating cancer” (UNIVERSITY OF IOWA RESEARCH FOUNDATION, priority 2015, dated 2023)
# At least one structure is not confirmed: it was looked up by name or label, or the drawing left a doubt.
# Legend:
# melanoma cells 451Lu = test: Seahorse flux analysis, BMOC/ECAR ratio, 451Lu; format: cell-based; details: continuous treatment, vemurafenib 5 μM, cobimetinib 0.1 μM, as cells approached the resistant phase
# metastatic melanoma = metastatic melanoma patients; cited from earlier work
# melanoma cells A375 = test: Seahorse flux analysis, BMOC/ECAR ratio, A375; format: cell-based; details: continuous treatment, vemurafenib 5 μM, cobimetinib 0.1 μM, as cells approached the resistant phase
compound,measurement,setting,value
CCCS(=O)(=O)Nc1ccc(F)c(C(=O)c2c[nH]c3ncc(-c4ccc(Cl)cc4)cc23)c1F [vemurafenib],BMOC/ECAR,melanoma cells 451Lu,increase
same,time for which tumor progression is slowed,metastatic melanoma,about 5.3 months
same,BMOC/ECAR,melanoma cells A375,increase
